Assay results as given in the supplement of paper PMC6411743.
± gives the standard deviation of the averaged measurements. The list shows a part of the results.

By UniProt entry, the sequences of proteins in these tests, tags left out. Where a name states a change or a piece, a line headed by the entry shows the natural chain unless it says otherwise.
UniProt Q96BD5: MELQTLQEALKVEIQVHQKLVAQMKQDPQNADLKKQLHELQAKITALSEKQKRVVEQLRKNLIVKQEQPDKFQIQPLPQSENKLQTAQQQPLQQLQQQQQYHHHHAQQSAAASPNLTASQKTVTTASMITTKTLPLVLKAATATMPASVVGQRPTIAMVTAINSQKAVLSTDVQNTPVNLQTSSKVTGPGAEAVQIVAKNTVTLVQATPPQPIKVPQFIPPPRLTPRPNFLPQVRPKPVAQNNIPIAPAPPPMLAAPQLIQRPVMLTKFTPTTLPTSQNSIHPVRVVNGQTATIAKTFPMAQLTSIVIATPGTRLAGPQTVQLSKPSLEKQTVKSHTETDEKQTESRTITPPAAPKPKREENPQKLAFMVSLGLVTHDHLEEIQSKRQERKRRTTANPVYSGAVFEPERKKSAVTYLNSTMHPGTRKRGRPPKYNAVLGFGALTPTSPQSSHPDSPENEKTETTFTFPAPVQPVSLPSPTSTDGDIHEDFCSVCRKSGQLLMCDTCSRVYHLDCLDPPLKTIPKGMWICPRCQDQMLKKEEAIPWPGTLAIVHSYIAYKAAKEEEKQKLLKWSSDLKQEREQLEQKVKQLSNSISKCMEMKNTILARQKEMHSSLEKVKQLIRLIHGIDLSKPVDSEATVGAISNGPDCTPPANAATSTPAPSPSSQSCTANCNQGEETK
UniProt Q93074, whole entry: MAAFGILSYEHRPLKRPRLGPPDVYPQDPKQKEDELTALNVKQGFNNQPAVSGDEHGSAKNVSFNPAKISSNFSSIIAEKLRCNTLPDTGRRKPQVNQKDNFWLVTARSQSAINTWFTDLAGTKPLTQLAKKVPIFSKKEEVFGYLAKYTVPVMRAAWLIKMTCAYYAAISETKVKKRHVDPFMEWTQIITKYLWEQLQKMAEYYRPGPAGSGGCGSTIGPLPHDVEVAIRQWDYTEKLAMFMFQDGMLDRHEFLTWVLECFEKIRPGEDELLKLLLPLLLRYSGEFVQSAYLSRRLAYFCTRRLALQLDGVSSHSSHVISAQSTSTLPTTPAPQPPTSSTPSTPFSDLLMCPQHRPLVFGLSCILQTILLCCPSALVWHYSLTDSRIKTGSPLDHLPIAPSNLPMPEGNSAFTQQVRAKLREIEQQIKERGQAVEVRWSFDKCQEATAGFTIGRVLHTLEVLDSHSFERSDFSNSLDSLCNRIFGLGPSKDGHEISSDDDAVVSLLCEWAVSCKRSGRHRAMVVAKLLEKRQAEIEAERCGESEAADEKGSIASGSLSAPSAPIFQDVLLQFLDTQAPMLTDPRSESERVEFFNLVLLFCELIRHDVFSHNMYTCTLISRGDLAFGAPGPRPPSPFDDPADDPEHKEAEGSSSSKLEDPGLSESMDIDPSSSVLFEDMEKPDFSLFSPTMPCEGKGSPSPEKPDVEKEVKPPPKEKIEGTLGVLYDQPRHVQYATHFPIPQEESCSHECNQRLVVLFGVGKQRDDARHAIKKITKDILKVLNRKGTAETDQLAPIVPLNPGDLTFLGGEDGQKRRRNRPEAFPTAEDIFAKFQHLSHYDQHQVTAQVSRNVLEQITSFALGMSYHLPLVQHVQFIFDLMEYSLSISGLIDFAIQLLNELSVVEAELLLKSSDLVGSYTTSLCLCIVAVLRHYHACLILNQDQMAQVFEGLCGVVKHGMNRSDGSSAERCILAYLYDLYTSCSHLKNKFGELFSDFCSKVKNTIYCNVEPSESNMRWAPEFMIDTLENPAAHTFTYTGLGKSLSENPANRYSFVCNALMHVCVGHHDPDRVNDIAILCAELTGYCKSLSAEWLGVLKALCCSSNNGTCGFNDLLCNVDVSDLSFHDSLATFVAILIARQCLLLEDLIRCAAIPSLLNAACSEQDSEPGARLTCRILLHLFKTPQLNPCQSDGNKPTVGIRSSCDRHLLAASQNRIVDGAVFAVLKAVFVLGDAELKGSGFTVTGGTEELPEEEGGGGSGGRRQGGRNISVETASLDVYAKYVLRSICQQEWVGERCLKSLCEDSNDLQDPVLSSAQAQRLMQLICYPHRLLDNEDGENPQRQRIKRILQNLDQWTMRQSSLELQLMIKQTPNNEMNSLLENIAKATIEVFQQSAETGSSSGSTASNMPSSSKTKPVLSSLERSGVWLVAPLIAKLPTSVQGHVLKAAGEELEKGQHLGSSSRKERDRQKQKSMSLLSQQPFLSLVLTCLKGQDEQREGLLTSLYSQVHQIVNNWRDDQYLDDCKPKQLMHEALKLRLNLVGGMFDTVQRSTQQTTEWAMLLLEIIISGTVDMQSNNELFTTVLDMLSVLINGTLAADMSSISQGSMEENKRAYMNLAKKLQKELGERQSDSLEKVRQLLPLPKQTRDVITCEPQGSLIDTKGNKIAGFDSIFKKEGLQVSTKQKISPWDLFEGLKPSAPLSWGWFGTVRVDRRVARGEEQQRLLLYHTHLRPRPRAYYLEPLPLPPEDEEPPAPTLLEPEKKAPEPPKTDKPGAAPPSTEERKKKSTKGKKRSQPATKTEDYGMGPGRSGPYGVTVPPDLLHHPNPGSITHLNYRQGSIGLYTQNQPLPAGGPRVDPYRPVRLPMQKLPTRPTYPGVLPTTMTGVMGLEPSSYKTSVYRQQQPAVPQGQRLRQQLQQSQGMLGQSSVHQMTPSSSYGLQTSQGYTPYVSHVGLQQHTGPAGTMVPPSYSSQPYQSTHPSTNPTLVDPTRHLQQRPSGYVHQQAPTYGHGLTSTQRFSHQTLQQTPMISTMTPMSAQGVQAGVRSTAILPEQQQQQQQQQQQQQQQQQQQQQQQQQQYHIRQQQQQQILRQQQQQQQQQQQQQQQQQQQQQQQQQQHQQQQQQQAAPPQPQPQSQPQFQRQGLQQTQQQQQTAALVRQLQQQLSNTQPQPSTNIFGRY
UniProt Q969G6: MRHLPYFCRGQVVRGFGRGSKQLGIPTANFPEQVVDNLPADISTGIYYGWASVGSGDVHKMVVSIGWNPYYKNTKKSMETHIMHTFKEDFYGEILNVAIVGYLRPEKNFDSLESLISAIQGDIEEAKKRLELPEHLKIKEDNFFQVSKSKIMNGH
UniProt Q8WW01: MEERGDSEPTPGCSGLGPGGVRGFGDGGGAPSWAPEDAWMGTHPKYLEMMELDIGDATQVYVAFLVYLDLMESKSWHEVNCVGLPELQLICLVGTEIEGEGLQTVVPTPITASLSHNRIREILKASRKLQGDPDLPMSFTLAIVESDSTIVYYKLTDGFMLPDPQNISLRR
UniProt Q8WXX5: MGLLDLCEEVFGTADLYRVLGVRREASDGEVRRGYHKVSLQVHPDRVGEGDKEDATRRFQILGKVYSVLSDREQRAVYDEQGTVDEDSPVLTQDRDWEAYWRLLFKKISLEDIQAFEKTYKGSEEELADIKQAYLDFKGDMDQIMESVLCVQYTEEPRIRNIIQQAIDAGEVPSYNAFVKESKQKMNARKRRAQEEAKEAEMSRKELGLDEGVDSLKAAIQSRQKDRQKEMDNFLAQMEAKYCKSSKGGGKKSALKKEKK
UniProt Q96CW5, whole entry: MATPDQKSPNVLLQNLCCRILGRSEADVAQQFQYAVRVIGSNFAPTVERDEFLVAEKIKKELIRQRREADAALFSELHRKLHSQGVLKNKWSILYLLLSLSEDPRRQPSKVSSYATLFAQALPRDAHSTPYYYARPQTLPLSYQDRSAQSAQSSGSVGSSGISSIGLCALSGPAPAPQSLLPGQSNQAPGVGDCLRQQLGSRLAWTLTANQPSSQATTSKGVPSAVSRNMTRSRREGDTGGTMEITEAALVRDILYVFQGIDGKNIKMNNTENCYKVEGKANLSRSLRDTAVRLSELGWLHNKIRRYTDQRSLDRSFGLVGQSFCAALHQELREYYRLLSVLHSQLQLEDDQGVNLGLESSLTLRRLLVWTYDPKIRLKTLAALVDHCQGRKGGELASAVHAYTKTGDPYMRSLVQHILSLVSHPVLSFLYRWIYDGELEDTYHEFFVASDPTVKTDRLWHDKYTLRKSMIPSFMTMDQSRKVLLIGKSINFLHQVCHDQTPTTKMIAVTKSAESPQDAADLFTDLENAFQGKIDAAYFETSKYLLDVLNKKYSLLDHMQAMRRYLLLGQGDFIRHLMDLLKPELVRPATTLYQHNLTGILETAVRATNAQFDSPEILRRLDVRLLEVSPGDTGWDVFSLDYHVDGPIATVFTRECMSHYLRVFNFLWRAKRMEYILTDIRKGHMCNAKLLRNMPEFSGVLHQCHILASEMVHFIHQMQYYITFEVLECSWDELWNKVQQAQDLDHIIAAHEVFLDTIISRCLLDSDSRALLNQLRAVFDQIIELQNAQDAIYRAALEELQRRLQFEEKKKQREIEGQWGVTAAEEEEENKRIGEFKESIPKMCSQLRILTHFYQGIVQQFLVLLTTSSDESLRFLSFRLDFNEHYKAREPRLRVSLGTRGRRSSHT
UniProt Q96A65: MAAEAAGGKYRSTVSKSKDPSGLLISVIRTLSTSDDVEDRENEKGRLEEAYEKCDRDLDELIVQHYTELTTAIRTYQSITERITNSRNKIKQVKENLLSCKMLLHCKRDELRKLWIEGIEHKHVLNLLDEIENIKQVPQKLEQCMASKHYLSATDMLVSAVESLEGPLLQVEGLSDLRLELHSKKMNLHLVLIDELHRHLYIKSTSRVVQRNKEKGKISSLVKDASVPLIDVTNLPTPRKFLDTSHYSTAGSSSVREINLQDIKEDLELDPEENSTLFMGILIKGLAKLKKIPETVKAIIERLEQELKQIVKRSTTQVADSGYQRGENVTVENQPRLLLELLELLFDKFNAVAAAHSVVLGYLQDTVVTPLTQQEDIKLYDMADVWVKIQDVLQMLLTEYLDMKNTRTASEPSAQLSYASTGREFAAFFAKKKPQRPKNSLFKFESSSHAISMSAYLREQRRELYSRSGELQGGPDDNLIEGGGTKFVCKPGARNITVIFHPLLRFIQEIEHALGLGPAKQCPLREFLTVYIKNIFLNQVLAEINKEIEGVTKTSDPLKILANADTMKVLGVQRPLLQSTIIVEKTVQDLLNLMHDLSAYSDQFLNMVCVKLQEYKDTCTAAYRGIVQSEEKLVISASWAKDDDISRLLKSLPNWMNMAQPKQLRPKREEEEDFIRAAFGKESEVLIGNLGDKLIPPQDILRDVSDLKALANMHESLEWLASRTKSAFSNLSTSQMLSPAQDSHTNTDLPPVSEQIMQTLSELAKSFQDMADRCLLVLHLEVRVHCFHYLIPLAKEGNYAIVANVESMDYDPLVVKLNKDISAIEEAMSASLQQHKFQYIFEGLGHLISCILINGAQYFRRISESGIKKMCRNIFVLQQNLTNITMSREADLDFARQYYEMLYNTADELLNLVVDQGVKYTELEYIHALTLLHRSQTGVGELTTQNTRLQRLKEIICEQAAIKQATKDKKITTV
UniProt Q96BX8: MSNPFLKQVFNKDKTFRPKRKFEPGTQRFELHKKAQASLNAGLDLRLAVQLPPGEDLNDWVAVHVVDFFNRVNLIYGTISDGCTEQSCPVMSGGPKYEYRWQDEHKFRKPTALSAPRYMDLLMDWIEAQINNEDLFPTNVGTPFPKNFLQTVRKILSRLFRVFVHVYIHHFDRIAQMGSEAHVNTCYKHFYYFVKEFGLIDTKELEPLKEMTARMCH
UniProt Q92834: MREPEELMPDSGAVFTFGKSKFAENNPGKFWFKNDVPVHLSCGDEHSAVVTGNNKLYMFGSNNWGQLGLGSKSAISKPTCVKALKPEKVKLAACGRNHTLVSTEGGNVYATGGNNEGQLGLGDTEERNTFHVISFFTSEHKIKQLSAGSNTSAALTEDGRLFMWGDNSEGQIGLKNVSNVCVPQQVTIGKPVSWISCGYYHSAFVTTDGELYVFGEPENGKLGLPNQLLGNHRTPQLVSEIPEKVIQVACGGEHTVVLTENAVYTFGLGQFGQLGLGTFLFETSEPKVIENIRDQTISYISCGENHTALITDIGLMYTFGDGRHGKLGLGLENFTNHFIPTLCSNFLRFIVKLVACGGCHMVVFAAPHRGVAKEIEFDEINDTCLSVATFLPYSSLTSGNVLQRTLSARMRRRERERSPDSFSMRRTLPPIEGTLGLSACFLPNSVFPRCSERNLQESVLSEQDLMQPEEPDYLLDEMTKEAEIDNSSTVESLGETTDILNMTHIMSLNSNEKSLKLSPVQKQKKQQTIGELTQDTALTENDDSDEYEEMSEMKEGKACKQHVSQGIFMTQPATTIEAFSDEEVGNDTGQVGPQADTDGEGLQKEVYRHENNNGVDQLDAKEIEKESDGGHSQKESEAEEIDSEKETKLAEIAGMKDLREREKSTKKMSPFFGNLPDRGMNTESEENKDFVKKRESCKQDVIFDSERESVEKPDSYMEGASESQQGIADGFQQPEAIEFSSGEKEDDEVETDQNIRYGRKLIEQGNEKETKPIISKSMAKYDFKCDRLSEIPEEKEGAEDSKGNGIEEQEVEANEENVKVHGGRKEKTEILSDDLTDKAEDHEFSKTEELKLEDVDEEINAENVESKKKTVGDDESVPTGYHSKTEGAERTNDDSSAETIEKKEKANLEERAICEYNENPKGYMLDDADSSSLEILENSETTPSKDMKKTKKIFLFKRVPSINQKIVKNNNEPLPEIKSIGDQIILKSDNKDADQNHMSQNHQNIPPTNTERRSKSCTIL

compound: Nc1nc2c(ncn2[C@@H]2O[C@H](COP(=O)(O)OP(=O)(O)OP(=O)(O)O)[C@@H](O)[C@H]2O)c(=O)[nH]1 [guanosine triphosphate]; test: NP40-soluble protein abundance relative to vehicle (solubility fold change) (ratio); higher = more soluble protein in presence of GTP; conditions: concentration: 0.1mM
Procedure, shortened: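 Jurkat crude lysate prepared with a Dounce homogeniser was treated at eight concentrations spanning 0.1 to 10 mM, 10 min at room temperature then 3 min at 37 °C. Solubilisation with 0.8% NP40 and benzonase and ultracentrifugation preceded TMT labelling of the supernatant for LC-MS/MS. Fold change against the detergent-processed vehicle was determined per replicate from vsn-normalised intensities, across three independent experiments.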

Target | NP40-soluble protein abundance
DHX38 (UniProt Q92620) | 1.07 ± 0.037
UniProt Q96BD5 and related entries | 1.01 ± 0.025
UniProt Q96EA4 and related entries | 0.956 ± 0.024
KTI12 (UniProt Q96EK9) | 0.945 ± 0.052
UniProt Q93074 and related entries | 1.15 ± 0.053
UniProt Q96AG3 and related entries | 1.02 ± 0.015
RFK (UniProt Q969G6) | 0.9524 ± 0.0088
UniProt Q96EY5 and related entries | 0.994 ± 0.021
UniProt Q8WWV3 and related entries | 1.02 ± 0.042
UniProt Q8WUY1 | 0.964 ± 0.059
TRUB1 (UniProt Q8WWH5) | 0.98 ± 0.017
TSEN15 (UniProt Q8WW01) | 0.978 ± 0.12
NUP205 (UniProt Q92621) | 1.06 ± 0.064
UniProt Q96FJ0 and related entries | 0.973 ± 0.075
TOPBP1 (UniProt Q92547) | 0.993 ± 0.023
DNAJC9 (UniProt Q8WXX5) | 0.948 ± 0.017
UniProt Q92608 and related entries | 1.08 ± 0.049
ITPKC (UniProt Q96DU7) | 1.03 ± 0.037
H1FX (UniProt Q92522) | 0.939 ± 0.087

Target | NP40-soluble protein abundance
CHMP7 (UniProt Q8WUX9) | 0.945 ± 0.058
UniProt Q92609 and related entries | 0.973 ± 0.026
EFHD2 (UniProt Q96C19) | 0.93 ± 0.062
PPP1R13L (UniProt Q8WUF5) | 1.14 ± 0.17
UniProt Q96EZ8 and related entries | 1.12 ± 0.05
UniProt Q96CW5 and related entries | 1.06 ± 0.092
UniProt Q969T7 and related entries | 1.04 ± 0.015
NSL1 (UniProt Q96IY1) | 1.02 ± 0.028
UniProt Q92610 and related entries | 0.985 ± 0.046
TGFBRAP1 (UniProt Q8WUH2) | 1.17 ± 0.16
UniProt Q92615 | 0.985 ± 0.041
EXOC4 (UniProt Q96A65) | 1.037 ± 0.0064
UniProt Q96DF8 | 0.982 ± 0.042
UniProt Q96BX8 | 1.05 ± 0.06
RPGR (UniProt Q92834) | 1.06 ± 0.046
UniProt Q96G23 | 0.969 ± 0.084
UniProt Q8WX93 and related entries | 1 ± 0.064
SCFD1 (UniProt Q8WVM8) | 1.08 ± 0.066

same assay, conditions: concentration: 0.5mM

Target | NP40-soluble protein abundance
DHX38 (UniProt Q92620) | 1.1 ± 0.038
UniProt Q96BD5 and related entries | 1.02 ± 0.035
UniProt Q96EA4 and related entries | 0.972 ± 0.069
KTI12 (UniProt Q96EK9) | 0.849 ± 0.043
UniProt Q93074 and related entries | 1.11 ± 0.068
UniProt Q96AG3 and related entries | 0.987 ± 0.034
RFK (UniProt Q969G6) | 1 ± 0.013
UniProt Q96EY5 and related entries | 1 ± 0.023
UniProt Q8WWV3 and related entries | 1.02 ± 0.056
UniProt Q8WUY1 | 0.919 ± 0.07
TRUB1 (UniProt Q8WWH5) | 0.959 ± 0.026
TSEN15 (UniProt Q8WW01) | 0.914 ± 0.019
NUP205 (UniProt Q92621) | 1.08 ± 0.1
UniProt Q96FJ0 and related entries | 0.991 ± 0.094
TOPBP1 (UniProt Q92547) | 0.99 ± 0.055
DNAJC9 (UniProt Q8WXX5) | 0.891 ± 0.088
UniProt Q92608 and related entries | 1.14 ± 0.11
ITPKC (UniProt Q96DU7) | 1.06 ± 0.16
H1FX (UniProt Q92522) | 0.89 ± 0.036

Target | NP40-soluble protein abundance
CHMP7 (UniProt Q8WUX9) | 0.935 ± 0.087
UniProt Q92609 and related entries | 0.987 ± 0.041
EFHD2 (UniProt Q96C19) | 0.874 ± 0.12
PPP1R13L (UniProt Q8WUF5) | 1.22 ± 0.2
UniProt Q96EZ8 and related entries | 1.17 ± 0.13
UniProt Q96CW5 and related entries | 1.18 ± 0.24
UniProt Q969T7 and related entries | 0.963 ± 0.031
NSL1 (UniProt Q96IY1) | 0.966 ± 0.024
UniProt Q92610 and related entries | 1.133 ± 0.011
TGFBRAP1 (UniProt Q8WUH2) | 1.12 ± 0.1
UniProt Q92615 | 1 ± 0.04
EXOC4 (UniProt Q96A65) | 1.04 ± 0.031
UniProt Q96DF8 | 0.979 ± 0.06
UniProt Q96BX8 | 0.957 ± 0.094
RPGR (UniProt Q92834) | 0.991 ± 0.074
UniProt Q96G23 | 0.989 ± 0.13
UniProt Q8WX93 and related entries | 0.977 ± 0.044
SCFD1 (UniProt Q8WVM8) | 1.04 ± 0.05

same assay, conditions: concentration: 1mM

Target | NP40-soluble protein abundance
DHX38 (UniProt Q92620) | 1.11 ± 0.1
UniProt Q96BD5 and related entries | 1.04 ± 0.043
UniProt Q96EA4 and related entries | 0.944 ± 0.067
KTI12 (UniProt Q96EK9) | 1.05 ± 0.066
UniProt Q93074 and related entries | 1.18 ± 0.098
UniProt Q96AG3 and related entries | 1 ± 0.053
RFK (UniProt Q969G6) | 0.974 ± 0.025
UniProt Q96EY5 and related entries | 0.966 ± 0.03
UniProt Q8WWV3 and related entries | 0.958 ± 0.03
UniProt Q8WUY1 | 0.932 ± 0.068
TRUB1 (UniProt Q8WWH5) | 0.963 ± 0.059
TSEN15 (UniProt Q8WW01) | 0.939 ± 0.065
NUP205 (UniProt Q92621) | 0.96 ± 0.058
UniProt Q96FJ0 and related entries | 0.974 ± 0.1
TOPBP1 (UniProt Q92547) | 0.985 ± 0.019
DNAJC9 (UniProt Q8WXX5) | 1.04 ± 0.053
UniProt Q92608 and related entries | 1.05 ± 0.06
ITPKC (UniProt Q96DU7) | 0.996 ± 0.074
H1FX (UniProt Q92522) | 1.14 ± 0.14

Target | NP40-soluble protein abundance
CHMP7 (UniProt Q8WUX9) | 0.973 ± 0.085
UniProt Q92609 and related entries | 0.982 ± 0.011
EFHD2 (UniProt Q96C19) | 0.953 ± 0.088
PPP1R13L (UniProt Q8WUF5) | 1.19 ± 0.25
UniProt Q96EZ8 and related entries | 1.17 ± 0.13
UniProt Q96CW5 and related entries | 1.26 ± 0.39
UniProt Q969T7 and related entries | 0.947 ± 0.02
NSL1 (UniProt Q96IY1) | 0.999 ± 0.058
UniProt Q92610 and related entries | 1.192 ± 0.01
TGFBRAP1 (UniProt Q8WUH2) | 1.12 ± 0.12
UniProt Q92615 | 1.08 ± 0.061
EXOC4 (UniProt Q96A65) | 1.01 ± 0.036
UniProt Q96DF8 | 1.1 ± 0.096
UniProt Q96BX8 | 0.913 ± 0.051
RPGR (UniProt Q92834) | 1.07 ± 0.087
UniProt Q96G23 | 0.946 ± 0.11
UniProt Q8WX93 and related entries | 1.02 ± 0.053
SCFD1 (UniProt Q8WVM8) | 1.04 ± 0.076
